The test system of the series is existing sprouts on post-dormant potatoes with peeps and sprouts extant. As to the kind of experiment: Comparison of thermofogged sprout suppressing chemicals for "burn" of existing sprouts (Example IV). The series is classed as in vivo. The conditions noted are these: for Smell: thermofogged chemical on potatoes. The method, then: Various sprout suppressing chemicals were compared for their ability to suppress existing sprouts on post-dormant potatoes with peeps and sprouts extant. […] Clove oil applied at a predetermined dosage gave a “burn” effectiveness of 46% of existing peeps while 1-nonanol at a dosage one-fourth as great gave a 50% “burn.” At a one-half dosage, 1-nonanol provided a 100% “burn” effectiveness within 24 hours after treatment. In the above table “Burn old” refers to the effect upon old sprouts, which included sprouts up to nine months old, these being generally more difficult to desiccate, while “burn new” refers to newly emerged sprouts and peeps, generally less than a month or so in existence.

Experimental findings from patent US20140200142A1, “TREATMENT OF STORED TUBERS WITH AEROSOLS OF HIGHER ALCOHOLS” (1,4 Group, Inc., priority 2013, published 2014) are described below.

For the compound `CCCCCCCCO` [1-Octanol, 1-octanol], the Smell entry is listed as “Pleasant, slight”.

For `CCCCCCCCCCCCO` [Dodecanol], the Smell result is on record as “moderate”. Also, the Comments entry (observation on treated potatoes) is “Stringy, sticky liquid”.

As to `CCCCCOC(C)=O` [AmylAcetate, reference compound], the Smell entry is recorded as “Rotten banana”.

As for `CCCCCCCCCCO` [1-Decanol, 1-decanol], the Smell result is “moderate”.

On to `CCCCCCCCCO` [1-Nonanol, 1-nonanol], for which the Smell result was “Moderate”.

Regarding `CCCCCCO` [Hexanol], the Smell result is “Pleasant, fruity”.
